The exact form of at least one protein or probe is not confirmed. Tags and fusion partners may be left off the protein sequences shown.
Tests used:
[1] = target: T1, Dda helicase (Enterobacteria phage T4) (UniProt P32270); assay: activity assay; details: iSp18, BNA in SEQ 30, 30 x 3' C3 spacers in SEQ 33, median translocation speed, nanopore
T1 sequence (limits assumed): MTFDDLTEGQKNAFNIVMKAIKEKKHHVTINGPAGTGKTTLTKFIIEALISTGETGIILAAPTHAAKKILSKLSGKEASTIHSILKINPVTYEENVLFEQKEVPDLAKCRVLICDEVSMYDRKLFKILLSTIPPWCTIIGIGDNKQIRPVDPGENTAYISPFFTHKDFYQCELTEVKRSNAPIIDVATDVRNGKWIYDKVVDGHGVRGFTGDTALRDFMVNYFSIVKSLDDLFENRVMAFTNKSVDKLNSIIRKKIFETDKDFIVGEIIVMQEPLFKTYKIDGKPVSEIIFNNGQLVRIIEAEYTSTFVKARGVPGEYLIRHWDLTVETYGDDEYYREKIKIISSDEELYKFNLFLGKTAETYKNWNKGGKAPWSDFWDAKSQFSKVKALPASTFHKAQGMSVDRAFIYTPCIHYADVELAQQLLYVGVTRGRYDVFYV

[2] = target: T1, Dda helicase (Enterobacteria phage T4); assay: binding assay; details: 3.6 kb SEQ 20 analyte
[3] = target: T2, Dda helicase closed with bismaleimide/disulfide linker (BMOE) (Enterobacteria phage T4) (UniProt P32270); assay: activity assay; details: iSp9, BNA in SEQ 69, median time between re-reads, 180 mV, variant of Y-adapter C3 leader SEQ 70
T2 sequence (limits assumed): T1 sequence (limits assumed)

“GTTATTCAAGACTTCTTTAATACACTTTTTTTTTTAATGTACTTCGTTCAGTTACGTATTGCTTTGGCGTCTGCTTGGGTGTTTAACCT / GGTTAAACACCCAAGCAGACGCCTTTGAGGCGAGCGGTCAA / GCAATACGTAACTGAACGAAGTACATT / GTGTATTAAAGAAGTCTTGAATAAC [Y-adapter Examples 6-8]” gave an activity on this sequence ([1]; 120 mV, lambda fragments ligated) of 319 bp/s, an activity on this sequence ([1]; 140 mV) of 259 bp/s and an activity on this sequence ([1]; 160 mV) of 196 bp/s.

“GTTATTCAAGACTTCTTTAATACACTTTTTTTTTTAATGTACTTCGTTCAGTTACGTATTGCTTTGGCGTCTGCTTGGGTGTTTAACCT / GGTTAAACACCCAAGCAGACGCCTTTGAGGCGAGCGGTCAATTTTTTTTTTTTTTTTTTTT / GCAATACGTAACTGAACGAAGTACATT / GTGTATTAAAGAAGTCTTGAATAAC [Y-adapter Example 5]”: binds ([2]; iSp18, BNA in SEQ 30 and 31, loaded and stalled, controlled movement after destalling).

“GTTATTCAAGACTTCTTTAATACACTTTTTTTTTTAATGTACTTCGTTCAGTTACGTATTGCTTTGGCGTCTGCTTGGGTGTTTAACCT / GTGTATTAAAGAAGTCTTGAATAACTTTGAGGCGAGCGGTCAA / TTTGCAATACGTAACTGAACGAAGTACATT / GGTTAAACACCCAAGCAGACGCCTTTUUUUUU [Y-adapter leader SEQ 71]” gave an activity on this sequence ([3]; mU x6 then C3 spacers, dropback 812 bases) of 123 s.

“GTTATTCAAGACTTCTTTAATACACTTTTTTTTTTAATGTACTTCGTTCAGTTACGTATTGCTTTGGCGTCTGCTTGGGTGTTTAACCT / GTGTATTAAAGAAGTCTTGAATAACTTTGAGGCGAGCGGTCAA / TTTGCAATACGTAACTGAACGAAGTACATT / GGTTAAACACCCAAGCAGACGCCUU [Y-adapter leader SEQ 72]” gave an activity on this sequence ([3]; mU x2 then C3 spacers, dropback 724 bases) of 79.4 s.

“TTTTTTTTTTAATGTACTTCGTTCAGTTACGTATTGCT / GCAATACGTAACTGAACGAAGTACATTTTTGAGGCGAGCGGTCAATTTTTTTTTTTTTTTTTTTT [Y-adapter Example 1]”: binds ([2]; 5' biotin-TEG, iSp18 on top strand, BNA A, MeC, A, T, T in bottom strand, loaded and stalled on adapter, 5'-3' translocation out of nanopore after destalling).
